Cleaved PARP after 72 h of treatment

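Human melanoma cell lines in 1,536-well plates were treated with two drugs together for 72 h, then fixed, stained and imaged. The read-out is the fraction of cleaved-PARP-positive nuclei, in % of that fraction in the DMSO control; 200 means twice the control level of this apoptosis marker. Every drug was used at one fixed concentration, the higher of two screened. These are primary screening values without error estimates. Basal and induced levels differ widely between cell lines.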
An unselected part of the screen is shown.
A dash means that no value is listed here.

Drug key:
LFM-A13: C/C(O)=C(\C#N)C(=O)Nc1cc(Br)ccc1Br at 10 µM
PLX4720: CCCS(=O)(=O)Nc1ccc(F)c(C(=O)c2c[nH]c3ncc(Cl)cc23)c1F at 0.4 µM
ZM336372: Cc1ccc(NC(=O)c2cccc(N(C)C)c2)cc1NC(=O)c1ccc(O)cc1 at 10 µM
pioglitazone: CCc1ccc(CCOc2ccc(CC3SC(=O)NC3=O)cc2)nc1 (stereo not given) at 10 µM
PF-562271: CN(c1ncccc1CNc1nc(Nc2ccc3c(c2)CC(=O)N3)ncc1C(F)(F)F)S(C)(=O)=O at 0.4 µM
dasatinib: Cc1nc(Nc2ncc(C(=O)Nc3c(C)cccc3Cl)s2)cc(N2CCN(CCO)CC2)n1 at 0.02 µM
dorsomorphin: c1cc(-c2cnn3cc(-c4ccc(OCCN5CCCCC5)cc4)cnc23)ccn1 at 2 µM
L-779450: Oc1cc(-c2nc(-c3ccccc3)[nH]c2-c2ccncc2)ccc1Cl at 1 µM
stibogluconate: O=C(O)[C@@H]1[O][Sb](=[O])([O][Sb]2(=[O])[O][C@H]([C@H](O)CO)[C@H](O)[C@H](C(=O)O)[O]2)[O][C@H]([C@H](O)CO)[C@@H]1O (stereo not given in full) at 10 µM
KU-55933: O=c1cc(-c2cccc3c2Sc2ccccc2S3)oc(N2CCOCC2)c1 at 5 µM

Combination,WM3619,WM451Lu,RPMI-7951,MEL-HO,IST-MEL1,MeWo,SK-MEL-2,MZ2-MEL,A2058,C32,G-361,LOX IMVI,RVH-421,UACC-257,A101D
dasatinib and pioglitazone,151,148,306,28.1,78.0,68.7,133,185,228,137,73.5,383,78.3,213,75.5
stibogluconate and L-779450,112,972,321,94.4,32.1,116,634,95.8,160,300,164,214,75.8,25.1,117
dasatinib and L-779450,170,76.7,94.5,54.8,299,150,473,232,253,119,42.1,313,129,24.7,150
dorsomorphin and L-779450,119,1000,175,127,289,112,349,46.6,204,129,65.4,78.0,246,36.4,134
dorsomorphin and dasatinib,154,177,186,64.5,45.5,91.2,174,3420,556,167,216,260,133,60.1,49.2
LFM-A13 and pioglitazone,134,31.3,35.2,90.7,61.8,109,85.6,55.7,91.4,156,68.2,57.7,41.9,115,160
ZM336372 and dorsomorphin,142,25.8,92.6,123,204,47.5,143,122,104,143,111,13.4,85.9,40.9,155
L-779450 and ZM336372,140,139,83.2,57.9,143,69.6,-,-,164,111,449,58.2,95.2,38.4,86.4
KU-55933 and stibogluconate,103,335,83.1,49.1,87.7,42.4,26.0,82.4,149,76.3,112,88.4,121,20.1,239
L-779450 and PLX4720,115,506,133,40.1,22.7,65.3,184,51.4,119,737,147,88.9,197,69.3,389
PF-562271 and dasatinib,134,366,103,118,156,101,93.9,1200,822,1270,128,1140,415,99.9,259
LFM-A13 and dasatinib,159,44.1,150,128,41.4,58.5,63.8,2520,158,91.4,30.1,723,102,27.3,149
KU-55933 and PF-562271,98.3,52.3,135,368,109,15.7,88.0,67.8,94.2,105,194,378,229,53.5,114
dorsomorphin and stibogluconate,83.5,60.4,259,79.4,41.2,44.4,43.2,47.0,97.4,79.8,57.8,140,139,26.9,128
dorsomorphin and PF-562271,134,131,72.4,426,89.4,53.8,184,124,174,124,403,75.1,157,133,256
dorsomorphin and KU-55933,97.4,150,52.5,36.7,67.7,159,106,199,123,389,408,50.3,56.5,25.3,46.2
pioglitazone and dorsomorphin,145,122,236,55.0,95.3,122,92.5,108,165,300,38.9,122,62.0,25.2,127
stibogluconate and pioglitazone,95.1,295,231,84.3,53.2,122,165,144,77.5,89.4,63.9,65.8,28.5,16.3,38.8
ZM336372 and PLX4720,85.5,509,85.9,141,310,53.1,60.1,135,70.4,112,181,75.3,125,111,101
stibogluconate and ZM336372,109,132,67.0,78.1,114,195,66.5,77.0,143,125,74.0,46.6,111,63.6,223
stibogluconate and PF-562271,105,304,68.3,107,214,81.3,63.0,134,186,653,92.1,51.9,47.3,221,141
PF-562271 and pioglitazone,122,273,127,193,49.5,89.3,183,184,130,104,136,78.4,66.2,268,208
KU-55933 and dasatinib,111,44.2,152,61.6,89.6,76.5,162,230,213,114,243,156,255,37.9,66.2
LFM-A13 and dorsomorphin,102,90.0,144,48.7,95.7,128,84.3,179,160,111,118,213,60.1,27.0,50.6
LFM-A13 and L-779450,155,142,299,140,65.2,62.4,389,105,133,90.4,81.3,44.5,104,81.9,204
ZM336372 and PF-562271,121,65.7,333,644,236,51.7,192,233,244,369,126,162,62.0,318,147
ZM336372 and pioglitazone,112,172,121,74.6,65.5,48.0,31.3,70.0,103,199,34.5,86.5,153,95.3,159
stibogluconate and PLX4720,93.4,184,70.3,41.7,104,55.3,64.5,49.5,111,126,199,155,99.6,108,101
PLX4720 and LFM-A13,114,740,74.4,102,87.6,99.5,145,88.9,107,166,168,64.8,191,28.6,159
KU-55933 and PLX4720,157,443,160,89.8,76.0,115,115,72.9,100,543,356,150,168,44.0,232
LFM-A13 and KU-55933,107,36.6,34.4,108,29.3,80.4,111,95.4,52.6,227,35.0,113,57.2,37.8,80.7
PLX4720 and dorsomorphin,152,409,119,120,53.2,298,96.5,31.3,248,109,627,232,166,73.2,165
LFM-A13 and stibogluconate,82.1,43.2,44.3,87.6,79.8,46.3,77.5,37.1,67.6,65.4,81.6,133,63.3,53.9,94.8
PF-562271 and PLX4720,104,57.1,191,239,173,79.4,195,134,131,190,256,211,57.4,55.1,95.2
dasatinib and ZM336372,84.6,21.1,416,135,191,96.0,65.5,211,207,318,124,908,206,143,110
PF-562271 and LFM-A13,117,337,137,152,49.5,136,153,129,224,192,127,106,96.8,103,37.4
PLX4720 and dasatinib,174,58.8,215,199,78.8,104,122,336,152,839,236,365,301,109,96.3
pioglitazone and PLX4720,146,539,80.6,52.0,146,106,110,91.1,177,103,877,91.0,156,57.7,224
pioglitazone and KU-55933,101,140,43.2,52.2,53.4,74.9,62.2,57.4,93.7,165,178,117,96.7,79.9,34.8
KU-55933 and ZM336372,128,93.3,87.9,115,95.3,94.2,81.0,32.1,218,100,96.0,52.2,269,30.7,117

Values as published with doi:10.1371/journal.pone.0140310, rounded.